In PubChem BioAssay AID1347075 (National Center for Advancing Translational Sciences (NCATS), 2019):
In all, about 400,000 compounds went through this assay and about 5,500 (1.4%) were called active. Inconclusive means that the source gave no clear call. Such entries were picked first, then a sample of the others. The call rests on the fitted dose curve; in most records, active means well fitted cell-killing curve with a large enough effect; inconclusive means small, poorly fitted or top-dose-only effect, or effect the other way; inactive means flat fitted curve, though single readings scatter. Potencies of inconclusive entries are doubtful fits and often do not repeat.
On the % scale 0 is the no-effect control and ±100 the full control effect; potency means the concentration at half of the fitted maximal effect.

Experiment: qHTS assay for MDR1-selective chemotherapeutics: Primary screen using the parental adenocarcinoma cell KB-3-1; further: nearly all actives have a fitted effect of over 60% in size
Conditions: KB-3-1 viability, CellTiter-Glo ATP luminescence, 72 h; activity change, negative = cytotoxic: at 46.1 µM (top of the series)
Method in brief: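 Cytotoxicity measured as CellTiter-Glo luminescence after 72 h at 37 C. Compound titrations were pinned onto drug-naive KB-3-1 parental adenocarcinoma cells grown in DMEM with 10% FBS, and normalized data fitted to concentration-response curves.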
For `CN(C)c1cccc(CN2CCN(c3ccccc3)CC2)c1`, the “activity change, negative = cytotoxic” value was inactive: 0.0302%.
For `Cn1nc(-c2ccccc2)nc2c(=O)n(C)c(=O)nc1-2`, the Potency was active: 4.61 µM.
For `CCC(C)NC(=O)CN1C(=O)CN=C(c2ccccc2)c2ccccc21` (centres undefined), the Potency was inconclusive: 14.6 µM [rising, single point].
For `CC(=Nc1ccc(F)cc1)c1c(O)n(C)c(=O)[nH]c1=O`, the “activity change, negative = cytotoxic” value was inactive: -0.105%.
For `C#C[C@]1(O)CC[C@H]2[C@@H]3CCC4=CC(=O)CC[C@]4(C)[C@H]3CC[C@@]21C`, the “activity change, negative = cytotoxic” value was inactive: 0%.
In the case of `[Hg+][c]1ccccc1`, the Potency is reported as inconclusive: 0.731 µM [cytotoxic, full curve, poor fit].
With `COc1ccc(-n2nnnc2C(c2cccc3ccccc23)N2CCC(n3c(=O)[nH]c4ccccc43)CC2)cc1` (centres undefined) the Potency was inconclusive: 25.9 µM [cytotoxic, partial curve, poor fit].
With `O=C1NC(=O)N(c2ccccc2)C(=O)/C1=C\C=C\c1ccccc1` the Potency was inconclusive: 29.1 µM [cytotoxic, single point].
For `O=C1C=C2C=C[C@H]3C[C@]2(O1)[C@@H]1CCCCN13`, the Potency was inconclusive: 29.1 µM [cytotoxic, single point].
In the case of `CCOC(=O)[C@]12Cc3cc(Cl)ccc3[C@H]1N(C)C(=O)c1ccccc12`, the Potency is reported as inconclusive: 18.4 µM [cytotoxic, single point].
For `COc1ccc(N/N=C/c2c(O)n(-c3cccc(C)c3)c(=O)[nH]c2=O)cc1`, the Potency was inconclusive: 20.6 µM [cytotoxic, partial curve].
For `Cc1ccc(NC(=O)N(Cc2ccc3c(c2)OCO3)C2CCN(Cc3ccccc3)CC2)cc1Cl`, the Potency was inconclusive: 29.1 µM [cytotoxic, single point].
In the case of `O=C1N(c2ccccc2)C(c2cccnc2)N2CCCN12` (centres undefined), the Potency is reported as inconclusive: 1.64 µM [rising, full curve, poor fit].
In the case of `COC(=O)C1=C(c2ccc(OC(F)(F)F)cc2)C[C@@H]2CC[C@H]1N2C(=O)N1CCCC1`, the Potency is reported as inconclusive: 20.6 µM [cytotoxic, single point].
With `Cc1ccc(NC(=O)CN2C(=O)CN=C(c3ccccc3)c3cc(Cl)ccc32)cc1` the Potency was inconclusive: 29.1 µM [cytotoxic, single point].
For `CN1C2CCC1/C(=C/c1ccccn1)C(=O)/C2=C\c1ccccn1`, the Potency was active: 0.92 µM.
With `CCN(CC)c1ccc(/C=N/c2sc3c(c2C#N)C2CCN3CC2)c(O)c1` the Potency was inconclusive: 20.6 µM [cytotoxic, single point].
For `CC(C)[C@H]1C(=O)O[C@H](C(C)C)C(=O)N(C)[C@@H](C(C)C)C(=O)O[C@H](C(C)C)C(=O)N(C)[C@@H](C(C)C)C(=O)O[C@H](C(C)C)C(=O)N1C`, the Potency was active: 5.8 µM.
For `CC(=O)OC(C)(C)/C=C/C(=O)C(C)(O)C1C(O)CC2(C)C3CC=C4C(CC(O)C(=O)C4(C)C)C3(C)C(=O)CC12C` (centres undefined), the Potency was active: 0.164 µM.
For `O=c1[nH]c(=S)n(Cc2ccc(F)cc2)c(O)c1C=NCCCn1ccnc1`, the “activity change, negative = cytotoxic” value was inactive: -14.5%.
In the case of `C[C@@H]1O[C@@H](O[C@H]2C[C@@H](O)[C@]3(CO)[C@H]4[C@H](O)C[C@]5(C)[C@@H](C6COC(=O)C6)CC[C@]5(O)[C@@H]4CC[C@]3(O)C2)[C@H](O)[C@H](O)[C@H]1O` (some centres undefined), the Potency is reported as inconclusive: 29.1 µM [cytotoxic, single point].
In the case of `COc1ccc(-n2nc(C(=O)NCC(=O)N3CCC4(CC3)OCCO4)c3ccccc3c2=O)cc1OC`, the “activity change, negative = cytotoxic” value is reported as inactive: 3.1%.
For `O=C1NCN(c2ccccc2)C12CCN(C(c1ccccc1OC(F)(F)F)c1nnnn1C1CCCCC1)CC2` (centres undefined), the Potency was inconclusive: 29.1 µM [cytotoxic, single point].
In the case of `Cc1ccc2c(CN3CC=C(c4ccccc4)CC3)cc(=O)oc2c1C`, the “activity change, negative = cytotoxic” value is reported as inactive: -8.43%.
With `COC(=O)C1=C(c2ccccc2OCc2ccccc2)C[C@@H]2CC[C@H]1N2C(=O)NCc1ccc(OC)cc1` the activity change, negative = cytotoxic was inconclusive: 0%.
In the case of `CSCCC(c1nnnn1-c1ccc2c(c1)OCCO2)N1CCC(n2c(=O)[nH]c3ccccc32)CC1` (centres undefined), the “activity change, negative = cytotoxic” value is reported as inactive: -0.163%.
With `COc1cc(O)cc2c1C(=O)O[C@@H](C)CCCC(=O)CCCCC2` the “activity change, negative = cytotoxic” value was inactive: 0.042%.
With `COC(=O)C1=C(c2ccc(F)cc2OCc2ccccc2)C[C@@H]2CC[C@H]1N2C(=O)NCc1ccccc1C(F)(F)F` the Potency was inconclusive: 14.6 µM [cytotoxic, partial curve, poor fit].
For `O=C(COc1ccc2ccccc2c1)N1CCN(Cc2c[nH]c3ccccc23)CC1`, the Potency was inconclusive: 29.1 µM [cytotoxic, single point].
In the case of `COc1ccc(N2C(=O)NC(=O)/C(=C\c3cn(C)c4ccccc34)C2=O)cc1`, the “activity change, negative = cytotoxic” value is reported as inactive: -15.5%.
With `Cc1ccccc1C(O)(Cc1ccccc1)C1CN2CCC1CC2` (centres undefined) the Potency was active: 10 µM.
With `COCCN1C(=O)/C(=C/c2c(OC)cc(OC)cc2OC)C(=O)N(c2ccccc2)C1=O` the Potency was inconclusive: 0.0073 µM [cytotoxic, full curve].
For `CCOC(=O)[C@]12Cc3cc(Cl)ccc3[C@H]1N(Cc1ccccc1)C(=O)c1ccccc12`, the Potency was inconclusive: 32.6 µM [cytotoxic, single point].
With `Cc1ccc(Cn2nc(C(=O)Nc3ccc(Br)cc3)cc2C)cc1` the Potency was inconclusive: 0.092 µM [cytotoxic, full curve].
With `CC(C)c1ccc(N2C(=O)NC(=O)/C(=C\C=C\c3ccco3)C2=O)cc1` the Potency was inconclusive: 25.9 µM [cytotoxic, single point].
In the case of `CCC(C)C(=O)N[C@@H](c1ccccc1)[C@@H](O)C(=O)O[C@H]1C[C@@]2(O)[C@@H](OC(=O)c3ccccc3)C3[C@](C)(C(=O)[C@H](OC(C)=O)C(=C1C)C2(C)C)[C@@H](O)C[C@H]1OC[C@@]31OC(C)=O` (some centres undefined), the Potency is reported as active: 0.0065 µM.
In the case of `Cn1cccc1/C=C1/C(=O)NC(=O)N(Cc2ccccc2)C1=O`, the Potency is reported as inconclusive: 3.66 µM [cytotoxic, partial curve].
With `COc1cc(C2c3cc4c(cc3CC3COC(=O)C32)OCO4)cc(OC)c1OC` (centres undefined) the Potency was active: 0.92 µM.
In the case of `COc1cccc2c1C(=O)c1c(O)c3c(c(O)c1C2=O)CC(O)(C(C)=NO)CC3OC1CC(N)C(O)C(C)O1` (centres undefined), the Potency is reported as inconclusive: 4.61 µM [cytotoxic, full curve, poor fit].
In the case of `Clc1ccc2c(c1)C(OC1CN3CCC1CC3)c1ccccc1CS2` (centres undefined), the Potency is reported as inconclusive: 29.1 µM [cytotoxic, single point].
With `CCOc1ccc(-c2cc(C)[n+](CCN3CCOCC3)c(-c3ccc(OCC)cc3)c2)cc1` the Potency was inconclusive: 29.1 µM [cytotoxic, single point].
With `O=C(c1ccc(Cl)cc1)C1CCCN(Cc2ccc3ncccc3c2)C1` (centres undefined) the Potency was inconclusive: 3.66 µM [cytotoxic, full curve].
In the case of `COc1cc2c(cc1O)[C@@H]1Cc3ccc(OC)c(O)c3CN1CC2`, the Potency is reported as active: 5.8 µM.
With `CCOC(=O)c1cnc(N2CC2)nc1N` the Potency was inconclusive: 23.1 µM [cytotoxic, partial curve, poor fit].
In the case of `COc1ccc(NC(=O)CCc2nc(C3=CCN(Cc4cccc(Cl)c4)CC3)no2)cc1OC`, the “activity change, negative = cytotoxic” value is reported as inactive: -2.42%.
For `O=C1NC(=O)C(Cc2ccccc2)(Cc2ccccc2)C(=O)N1`, the “activity change, negative = cytotoxic” value was inactive: -13%.
With `Cc1cccc(C)c1-n1nnnc1C(c1cccs1)N1CCC(n2c(=O)[nH]c3ccccc32)CC1` (centres undefined) the Potency was inconclusive: 3.26 µM [cytotoxic, full curve, poor fit].
With `CN1C(=O)C(=Cc2ccc(N3CCCCCC3)o2)C(=O)N(C)C1=S` the Potency was inconclusive: 25.9 µM [cytotoxic, single point].
For `CCOc1cc2c(cc1OCC)-n1cccc1C(c1ccc(OC)c(OC)c1)NC2` (centres undefined), the “activity change, negative = cytotoxic” value was inactive: 0%.
In the case of `O=[N+]([O-])/C=C/c1c(Cl)cccc1Cl`, the Potency is reported as inconclusive: 8.2 µM [cytotoxic, partial curve].
In the case of `Cc1ccc(-n2nc(C)c3c2NC(=O)CSC3c2ccc(O)cc2)cc1Cl` (centres undefined), the Potency is reported as active: 23.1 µM.
For `S=C(N1CCCCCC1)N1CC1`, the Potency was inconclusive: 29.1 µM [cytotoxic, partial curve, poor fit].
In the case of `NCC(=O)c1ccc(Cl)c(Cl)c1`, the Potency is reported as inconclusive: 16.4 µM [cytotoxic, single point].
In the case of `COC[C@H]1OC(=O)c2coc3c2[C@@]1(C)C1=C(C3=O)[C@@H]2CCC(=O)[C@@]2(C)C[C@H]1OC(C)=O`, the Potency is reported as active: 20.6 µM.
With `COc1cc(/C=C(/C)[N+](=O)[O-])ccc1OCc1ccccc1Cl` the Potency was inconclusive: 29.1 µM [cytotoxic, single point].
In the case of `N=C1c2ccccc2CN1NC(=O)c1ccco1`, the activity change, negative = cytotoxic is reported as inconclusive: 7.19%.
For `OC(c1cccc(Cl)c1)(c1cccc(Cl)c1)C1CN2CCC1CC2` (centres undefined), the Potency was inconclusive: 20.6 µM [cytotoxic, single point].
With `C/C(=N\N1CCCCC1c1cccnc1)c1c(O)n(C2CCCCC2)c(=S)[nH]c1=O` (centres undefined) the Potency was inconclusive: 20.6 µM [cytotoxic, single point].
With `CC(C)CCn1c(=O)c(C(=O)Nc2ccccc2S(N)(=O)=O)c(O)c2ccccc21` the Potency was active: 3.66 µM.
For `COc1cccc(-n2c(/C=C/c3ccccn3)nc3ccccc3c2=O)c1`, the Potency was inconclusive: 29.1 µM [cytotoxic, single point].
With `COC(=O)C1=C(c2ccc(-c3ccccc3)c(F)c2)C[C@@H]2CC[C@H]1N2C(=O)N1CCCC1` the Potency was active: 18.4 µM.
In the case of `C=CCn1c(=O)c(C=Nc2c(OC)cccc2[N+](=O)[O-])c(O)n(CCCC)c1=O`, the “activity change, negative = cytotoxic” value is reported as inactive: 22.3%.
In the case of `COC(=O)C1=C(c2ccc(F)cc2OCc2ccccc2)C[C@@H]2CC[C@H]1N2C(=O)NCc1ccccc1Br`, the Potency is reported as inconclusive: 25.9 µM [cytotoxic, partial curve, poor fit].
With `C(=NN1CCCCCC1)c1c[nH]c2ccccc12` the “activity change, negative = cytotoxic” value was inactive: -16.8%.
